# Melanoma cell counts after drug treatment

Drugs:
ruxolitinib (1 µM): N#CC[C@H](C1CCCC1)n1cc(-c2ncnc3[nH]ccc23)cn1
VX-702 (0.4 µM): NC(=O)c1ccc(N(C(N)=O)c2c(F)cccc2F)nc1-c1ccc(F)cc1F
palbociclib (0.04 µM): CC(=O)c1c(C)c2cnc(Nc3ccc(N4CCNCC4)cn3)nc2n(C2CCCC2)c1=O
NVP-BEZ235 (0.004 µM): Cn1c(=O)n(-c2ccc(C(C)(C)C#N)cc2)c2c3cc(-c4cnc5ccccc5c4)ccc3ncc21
nutlin-3 (0.1 µM): COc1ccc(C2=N[C@@H](c3ccc(Cl)cc3)[C@@H](c3ccc(Cl)cc3)N2C(=O)N2CCNC(=O)C2)c(OC(C)C)c1
sorafenib (0.4 µM): CNC(=O)c1cc(Oc2ccc(NC(=O)Nc3ccc(Cl)c(C(F)(F)F)c3)cc2)ccn1
nilotinib (0.2 µM): Cc1cn(-c2cc(NC(=O)c3ccc(C)c(Nc4nccc(-c5cccnc5)n4)c3)cc(C(F)(F)F)c2)cn1
CX-4945 (0.4 µM): O=C(O)c1ccc2c(c1)nc(Nc1cccc(Cl)c1)c1ccncc12
pazopanib (0.4 µM): Cc1ccc(Nc2nccc(N(C)c3ccc4c(C)n(C)nc4c3)n2)cc1S(N)(=O)=O
vincristine (0.0001 µM): CC[C@]1(O)C[C@H]2CN(CCc3c([nH]c4ccccc34)[C@@](C(=O)OC)(c3cc4c(cc3OC)N(C=O)[C@H]3[C@@](O)(C(=O)OC)[C@H](OC(C)=O)[C@]5(CC)C=CCN6CC[C@]43[C@@H]65)C2)C1
IMD-0354 (0.016 µM): O=C(Nc1cc(C(F)(F)F)cc(C(F)(F)F)c1)c1cc(Cl)ccc1O
ABT-263 (0.4 µM): CC1(C)CCC(c2ccc(Cl)cc2)=C(CN2CCN(c3ccc(C(=O)NS(=O)(=O)c4ccc(N[C@H](CCN5CCOCC5)CSc5ccccc5)c(S(=O)(=O)C(F)(F)F)c4)cc3)CC2)C1
tanespimycin (0.002 µM): C=CCNC1=C2C[C@@H](C)C[C@H](OC)[C@H](O)[C@@H](C)/C=C(\C)[C@H](OC(N)=O)[C@@H](OC)/C=C\C=C(/C)C(=O)NC(=CC1=O)C2=O
etoposide (0.02 µM): COc1cc([C@@H]2c3cc4c(cc3[C@@H](O[C@@H]3O[C@@H]5CO[C@@H](C)O[C@H]5[C@H](O)[C@H]3O)[C@H]3COC(=O)[C@H]23)OCO4)cc(OC)c1O
PLX4720 (0.08 µM): CCCS(=O)(=O)Nc1ccc(F)c(C(=O)c2c[nH]c3ncc(Cl)cc23)c1F
enzastaurin (0.8 µM): Cn1cc(C2=C(c3cn(C4CCN(Cc5ccccn5)CC4)c4ccccc34)C(=O)NC2=O)c2ccccc21
lestaurtinib (0.004 µM): C[C@]12O[C@H](C[C@]1(O)CO)n1c3ccccc3c3c4c(c5c6ccccc6n2c5c31)CNC4=O
darinaparsin (0.4 µM): C[As](C)SC[C@H](NC(=O)CC[C@H](N)C(=O)O)C(=O)NCC(=O)O
stibogluconate (2 µM): O=C(O)[C@@H]1[O][Sb](=[O])([O][Sb]2(=[O])[O][C@H]([C@H](O)CO)[C@H](O)[C@H](C(=O)O)[O]2)[O][C@H]([C@H](O)CO)[C@@H]1O (some centres undefined)

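The test systems are human melanoma cell lines, treated with a pair of drugs for 72 h and then stained and imaged. Values are the number of DAPI-stained nuclei as a percentage of the DMSO control: 100 is no effect, lower means fewer cells. Every drug was used at one fixed concentration, the lower of two screened (a fifth of the higher). These are primary screening values without error estimates.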
An unselected part of the screen is shown.
An entry leaves out what has no value listed here.
A dash means that no value is listed here.

Combination	LB2518-MEL	G-361	A375	MEL-HO	A2058	COLO 800	IPC-298	IST-MEL1	COLO 829	C32	COLO 792	LOX IMVI	A101D
vincristine and darinaparsin	91.7	80.1	-	81.4	-	84.3	100	84.8	50.1	-	86.1	74.4	-
darinaparsin and VX-702	114	114	95.4	110	104	73.2	99.6	106	86.9	-	98.9	144	102
etoposide and darinaparsin	107	97.4	-	89.1	-	116	90.5	108	91.0	-	105	114	-
palbociclib and stibogluconate	79.6	86.6	-	89.4	-	101	91.5	91.8	92.5	-	69.2	67.1	-
ABT-263 and VX-702	78.0	81.1	-	73.9	-	51.0	107	83.8	99.4	-	40.2	7.0	-
ABT-263 and nutlin-3	84.9	75.9	-	87.6	-	47.6	95.8	77.2	102	-	57.0	28.5	-
nutlin-3 and IMD-0354	101	86.9	-	93.1	-	85.5	88.2	100	87.1	-	101	119	-
nilotinib and lestaurtinib	129	91.4	-	94.2	-	91.2	98.0	103	136	-	95.6	176	-
ruxolitinib and darinaparsin	154	86.7	-	104	-	147	108	98.8	108	-	101	117	-
vincristine and enzastaurin	91.3	78.8	-	99.9	-	111	102	101	114	-	89.9	73.6	-
lestaurtinib and vincristine	93.4	108	-	111	-	75.7	97.2	97.2	79.2	-	98.9	78.2	-
IMD-0354 and sorafenib	96.0	92.7	-	107	-	154	92.2	97.4	76.2	-	92.9	90.6	-
stibogluconate and darinaparsin	115	108	-	95.6	-	104	107	107	99.5	-	97.3	80.0	-
NVP-BEZ235 and pazopanib	63.3	80.2	-	88.0	-	99.4	73.4	87.9	94.3	102	96.1	86.4	-
NVP-BEZ235 and ABT-263	92.3	84.3	-	89.8	-	46.1	95.1	77.9	109	-	57.0	34.7	-
ruxolitinib and tanespimycin	113	98.1	-	88.1	98.4	104	101	96.4	103	85.7	103	87.8	105
CX-4945 and PLX4720	117	76.3	-	81.1	-	74.7	95.3	98.4	132	-	88.9	68.2	-
darinaparsin and palbociclib	73.2	85.1	-	92.9	-	77.9	82.9	76.9	85.9	-	74.5	105	-
CX-4945 and pazopanib	88.4	88.3	-	98.5	-	114	74.0	108	95.4	117	90.5	117	-
ABT-263 and PLX4720	82.3	72.4	-	67.8	-	34.1	91.5	80.1	121	-	52.9	10.6	-
PLX4720 and darinaparsin	135	94.7	-	90.0	-	61.9	98.1	98.4	131	-	133	133	-
sorafenib and darinaparsin	85.6	85.4	-	89.9	-	79.5	84.5	106	98.5	-	119	82.4	-
tanespimycin and pazopanib	83.2	79.8	-	94.8	-	77.2	81.0	99.4	96.6	-	89.8	80.8	-

3 of the entries, repeated:

- NVP-BEZ235 and ABT-263 : LB2518-MEL: 92.3; G-361: 84.3; MEL-HO: 89.8; COLO 800: 46.1; IPC-298: 95.1; IST-MEL1: 77.9; COLO 829: 109; COLO 792: 57.0; LOX IMVI: 34.7
- IMD-0354 and sorafenib : LB2518-MEL: 96.0; G-361: 92.7; MEL-HO: 107; COLO 800: 154; IPC-298: 92.2; IST-MEL1: 97.4; COLO 829: 76.2; COLO 792: 92.9; LOX IMVI: 90.6
- sorafenib and darinaparsin : LB2518-MEL: 85.6; G-361: 85.4; MEL-HO: 89.9; COLO 800: 79.5; IPC-298: 84.5; IST-MEL1: 106; COLO 829: 98.5; COLO 792: 119; LOX IMVI: 82.4

Source: doi:10.1371/journal.pone.0140310, primary screening data, rounded.